From patent publication US11883434B2, “Extracellular vesicles and methods of using” (NUtech Ventures, priority 2017, dated 2024)
Where two headings read alike, the source gives them in different places. Some results were stated once for a whole list of compounds, not compound by compound. For some of these results: At least one structure is not confirmed: it was looked up by name or label, or the drawing left a doubt.

Columns and labels:
[1] = tested on: human umbilical vein endothelial cells (HUVEC); assay: Uptake of fluorophore-labeled milk exosomes into HUVECs; assay type: cell-based; details: cells pretreated 30 min with 10 mg/mL Cyt D or 20 mg/mL BFA; 55 mg/200 mL exosomes
[2] = tested on: human colon carcinoma Caco-2 cells; assay type: cell-based
Experimental: Caco-2 cells and IEC-6 cells were seeded at a density of 20,000 and 7000 cells/well, respectively, in 96-well plates, and allowed to adhere for 48 h, when cells were 75% confluent. The exosomes were labeled with the fluorophore, FM 4-64 (Molecular Probes). One microliter of a stock solution of FM 4-64 (5.9 mmol/L) was added to 1 mL of exosome suspension and incubated for 15 min at 37° C., and excess FM 4-64 was removed by ultracentrifugation at 120,000 3 g at 4° C. for 90 min. […] Assays were calibrated by quantifying the fluorescence of a known mass of exosomes labeled with FM 4-64. Exosome uptake was analyzed by measuring the cell fluorescence at 515 (excitation) and 640 nm (emission) using a Biotek FLx800 plate reader (BioTek Instru-ments). Fluorescence readings were corrected for cell autofluorescence by subtracting signals measured in cells incubated with exosome-depleted media. […] In Caco-2 cells, exosome uptake was linear for up to 120 min if transport was measured using nonsaturating substrate concentrations (FIG. 33A): y=0.0012x+0.014 (r2=0.97; P<0.05). In IEC-6 cells exosome uptake was linear for only up to 60 min if transport was measured using nonsaturating substrate concentrations (FIG. 33B): y=0.0033x+0.033 (r2=0.75; P<0.05). […]

Compound	exosome transport [1]	decrease of exosome uptake ([2]; Caco-2 cells treated with the labelled agent)	decrease of exosome uptake ([2]; exosomes treated with the labelled agent)
C=C1[C@@H](C)[C@H]2[C@H](Cc3ccccc3)NC(=O)[C@]23[C@H](OC(C)=O)/C=C/[C@@](C)(O)C(=O)[C@@H](C)C/C=C/[C@H]3[C@@H]1O [cytochalasin D]	< 50 % of controls	–	–
C[C@H]1CCC/C=C/[C@@H]2C[C@H](O)C[C@H]2[C@H](O)/C=C/C(=O)O1 [BFA, brefeldin A]	< 50 % of controls	–	–
Glu-C: Serine protease cleaving at glutamic acid and aspartic acid	–	greater than 50%	greater than 50%
